Test results published in article PMC4006922.
No constants are given. Whether binding was seen depends on the method and setting. In cells and extracts the contact can be indirect. Some results given as binding are weak or reduced against the parent protein; the word gives no strength. Sequences can lack the tags named with a protein.

Amino acid sequences for entries named in this document (tags omitted).
UniProt Q14160: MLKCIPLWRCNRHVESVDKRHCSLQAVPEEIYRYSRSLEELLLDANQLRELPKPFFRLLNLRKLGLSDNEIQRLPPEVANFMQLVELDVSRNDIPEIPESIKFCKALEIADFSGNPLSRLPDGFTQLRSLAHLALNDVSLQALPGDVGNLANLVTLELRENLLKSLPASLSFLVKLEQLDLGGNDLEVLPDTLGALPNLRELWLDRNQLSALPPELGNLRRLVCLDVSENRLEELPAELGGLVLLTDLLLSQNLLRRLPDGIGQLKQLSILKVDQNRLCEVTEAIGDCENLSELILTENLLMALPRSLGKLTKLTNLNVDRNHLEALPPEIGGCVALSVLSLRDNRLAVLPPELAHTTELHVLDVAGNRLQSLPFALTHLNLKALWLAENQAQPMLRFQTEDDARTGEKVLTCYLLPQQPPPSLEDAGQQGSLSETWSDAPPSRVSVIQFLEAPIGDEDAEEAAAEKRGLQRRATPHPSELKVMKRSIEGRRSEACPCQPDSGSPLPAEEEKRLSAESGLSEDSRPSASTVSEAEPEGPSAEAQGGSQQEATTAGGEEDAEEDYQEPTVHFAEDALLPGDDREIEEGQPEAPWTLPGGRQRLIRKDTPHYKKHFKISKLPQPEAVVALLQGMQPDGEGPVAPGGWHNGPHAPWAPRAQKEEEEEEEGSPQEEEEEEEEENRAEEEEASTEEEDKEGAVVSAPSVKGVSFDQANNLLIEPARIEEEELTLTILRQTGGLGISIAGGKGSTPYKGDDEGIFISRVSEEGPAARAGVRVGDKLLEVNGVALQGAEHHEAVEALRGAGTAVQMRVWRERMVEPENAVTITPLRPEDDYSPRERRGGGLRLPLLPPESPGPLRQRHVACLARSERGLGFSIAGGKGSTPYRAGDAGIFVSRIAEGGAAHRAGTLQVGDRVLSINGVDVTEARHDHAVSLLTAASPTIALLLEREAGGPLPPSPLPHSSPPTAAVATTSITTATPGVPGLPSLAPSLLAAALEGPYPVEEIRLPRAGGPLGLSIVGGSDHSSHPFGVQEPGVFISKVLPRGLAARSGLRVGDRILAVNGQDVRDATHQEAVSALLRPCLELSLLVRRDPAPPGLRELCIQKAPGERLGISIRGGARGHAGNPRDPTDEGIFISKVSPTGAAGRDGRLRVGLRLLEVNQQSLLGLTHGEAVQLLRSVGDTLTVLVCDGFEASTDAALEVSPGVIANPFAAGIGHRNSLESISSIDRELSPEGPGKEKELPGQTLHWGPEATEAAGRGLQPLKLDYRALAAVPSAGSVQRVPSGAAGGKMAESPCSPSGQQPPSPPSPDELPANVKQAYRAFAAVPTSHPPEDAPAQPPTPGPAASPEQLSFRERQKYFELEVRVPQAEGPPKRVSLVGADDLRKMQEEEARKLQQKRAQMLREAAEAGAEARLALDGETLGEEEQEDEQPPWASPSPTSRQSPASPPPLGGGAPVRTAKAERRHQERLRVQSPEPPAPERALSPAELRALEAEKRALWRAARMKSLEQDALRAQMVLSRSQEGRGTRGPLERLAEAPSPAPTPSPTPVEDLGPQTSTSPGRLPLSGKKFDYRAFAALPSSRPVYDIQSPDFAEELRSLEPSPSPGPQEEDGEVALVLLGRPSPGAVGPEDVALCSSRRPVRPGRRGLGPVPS
UniProt O00459: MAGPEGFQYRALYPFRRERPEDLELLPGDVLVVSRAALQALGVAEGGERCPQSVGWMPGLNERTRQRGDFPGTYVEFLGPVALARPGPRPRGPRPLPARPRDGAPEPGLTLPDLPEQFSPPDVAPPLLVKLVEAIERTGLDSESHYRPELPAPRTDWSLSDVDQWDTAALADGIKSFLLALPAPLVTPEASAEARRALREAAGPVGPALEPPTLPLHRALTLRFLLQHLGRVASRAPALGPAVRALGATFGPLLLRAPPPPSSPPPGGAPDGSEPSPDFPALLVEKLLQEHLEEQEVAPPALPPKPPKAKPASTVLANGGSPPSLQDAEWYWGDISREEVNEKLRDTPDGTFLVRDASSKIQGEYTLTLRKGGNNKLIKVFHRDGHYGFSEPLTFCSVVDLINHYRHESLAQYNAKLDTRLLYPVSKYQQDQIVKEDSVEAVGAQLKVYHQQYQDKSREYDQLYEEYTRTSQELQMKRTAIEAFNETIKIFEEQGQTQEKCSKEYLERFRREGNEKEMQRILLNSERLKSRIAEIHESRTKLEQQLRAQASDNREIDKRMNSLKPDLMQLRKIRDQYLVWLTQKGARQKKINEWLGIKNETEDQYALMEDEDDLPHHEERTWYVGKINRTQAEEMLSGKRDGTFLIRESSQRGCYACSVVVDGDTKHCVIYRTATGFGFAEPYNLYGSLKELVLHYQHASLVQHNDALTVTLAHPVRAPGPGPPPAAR

Molecular target: T1, GST-Ad9 E4-ORF1 fusion protein (human adenovirus type 9 (Ad9)) (UniProt P89079)
T1 sequence: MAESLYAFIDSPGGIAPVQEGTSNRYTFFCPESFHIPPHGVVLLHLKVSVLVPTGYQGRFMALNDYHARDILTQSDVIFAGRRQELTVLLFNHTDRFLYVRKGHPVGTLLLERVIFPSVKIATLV
Assay: pull-down; MCF10A cell extract (500 µg of protein, RIPA buffer) with GST or GST-Ad9 E4-ORF1 on glutathione-sepharose beads; immunoblot; only the target purified

Substance | binding
scribble (endogenous cellular PDZ protein) (from UniProt Q14160 1-1655) | no binding
PI3K regulatory subunit p85β (endogenous) (from UniProt O00459 1-728) | binds
